The subject of this assay is Salmonella enterica serovar Typhimurium SL1344. The experiment in a line: bacterial growth OD600 after 18 h with compound and polymyxin B; higher = more bacterial growth (less inhibition). Particulars: 50 µM, Mueller-Hinton broth.

Each structure is given as a SMILES string. The list shows a part of the results. These are raw signals, not scaled to a control.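 In the initial screen, polymyxin B was used at a concentration that permeabilizes Salmonella's outer membrane but not its inner membrane. Maximum growth was set by DMSO wells with or without polymyxin B. Since plates varied, data were ranked per plate, and compounds giving the lowest OD600 advanced as hits.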

On to `COCCn1cc(C(=O)NCCc2cccc(Cl)c2)c(=O)c(C(=O)N2CCCC(C)C2)c1` (stereo not given), for which the “bacterial growth OD600” value (polymyxin B 0.75 µg/mL) turned out to be 0.828.

For `COc1ccc(CN2CCCC(CCC(=O)NCc3ccc(OC)cc3OC)C2)cc1` (stereo not given), the “bacterial growth OD600” value (polymyxin B 0.75 µg/mL) amounted to 0.785.

Turning to `COC(=O)C1CCN(C(=O)c2oc3ccc(C)cc3c2C)CC1`, the “bacterial growth OD600” value (polymyxin B 1 µg/mL) was 1.07.

Take `COC(=O)CN(C)C(=O)CC(c1ccccc1)c1ccc(Cl)cc1` (stereo not given): under “polymyxin B 1 µg/mL”, the “bacterial growth OD600” value was determined as 0.714.

For `C=CCN(CC=C)C(=O)c1cc(COc2c(C)cccc2C)on1`, the “bacterial growth OD600” value (polymyxin B 0.75 µg/mL) came out at 0.607.

Regarding `CCC1C(=O)NCCN1C(=O)c1csc2nc(-c3cccc(Cl)c3)cn12` (stereo not given), the “bacterial growth OD600” value (polymyxin B 0.75 µg/mL) worked out at 0.651.

Take `CN(C)S(=O)(=O)Nc1ccc(N2CCC(NCC3(c4ccccc4)CCOCC3)CC2)cc1`: where the note is “polymyxin B 0.75 µg/mL”, the “bacterial growth OD600” value came to 0.866.

Consider `CC(=O)NC(C(=O)N1CCC(C(Cc2ccccc2C)N(C)C(=O)Cn2cccn2)CC1)C(C)C` (stereo not given), for which the “bacterial growth OD600” value (polymyxin B 0.75 µg/mL) was found to be 0.883.

For `COc1cccc(CC2=NOC(C(=O)NCc3ccc(F)c(F)c3)C2)c1` (stereo not given), the “bacterial growth OD600” value (polymyxin B 0.75 µg/mL) is 0.742.

As to `COCCN(C)C(=O)c1coc(COc2ccc(F)cc2Cl)n1`, the “bacterial growth OD600” value (polymyxin B 1 µg/mL) stood at 1.13.

Regarding `CC(=O)N1CCCC1C(=O)Nc1cccc(-n2cccn2)c1` (stereo not given), the “bacterial growth OD600” value (polymyxin B 1 µg/mL) was found to be 0.803.

As to `CCOC(=O)C1(CCOc2ccccc2)CCCN(C(=O)c2ccc(OC)o2)C1` (stereo not given), for the setting “polymyxin B 1 µg/mL”, the “bacterial growth OD600” value came out at 0.728.

As for `COc1cccc(-c2noc(-c3ccc(NCc4ccccc4)nc3)n2)c1OC`, for the setting “polymyxin B 0.75 µg/mL”, the “bacterial growth OD600” value amounted to 0.871.

For `COc1ccccc1C1CN(CCNC(=O)c2cc(C)[nH]n2)Cc2ccccc2O1` (stereo not given), the “bacterial growth OD600” value (polymyxin B 0.75 µg/mL) is 0.845.

Consider `COc1ccc(-n2ccnc2CN2CCCC(CCC(=O)N3CCOCC3)C2)cc1` (stereo not given), for which the “bacterial growth OD600” value (polymyxin B 1 µg/mL) came out at 1.03.

In the case of `c1ccc(CC2CN(Cc3nc4c(s3)CCCC4)CCO2)cc1` (stereo not given), the “bacterial growth OD600” value (polymyxin B 0.75 µg/mL) amounted to 0.662.

As to `CCn1ccnc1CN(C)CC1CCN(CCc2ccc(OC)cc2)CC1`, for the setting “polymyxin B 1 µg/mL”, the “bacterial growth OD600” value amounted to 1.1.

Turning to `CCOC(=O)N1CCN(C(=O)c2ccc(N3CCC(NCc4cc(F)cc(F)c4)CC3)cc2)CC1`, the “bacterial growth OD600” value (polymyxin B 0.75 µg/mL) was determined as 0.821.

`COC(=O)[C@@H](NC(=O)c1cc(OC)ccc1OC1CCN(C(=O)C2CC2)CC1)C(C)C`: the “bacterial growth OD600” value (polymyxin B 1 µg/mL) stood at 1.24.

Consider `CCCCN(C)C(=O)C1CCC(=O)N(CCc2cccc(F)c2)C1` (stereo not given), for which the “bacterial growth OD600” value (polymyxin B 1 µg/mL) is 0.944.
